Some results were stated once for a whole list of compounds, not compound by compound.
System: 6 MDR/XDR Gram-negative strains
Assay: Checkerboard combination testing, summary over the six strains
Format: cell-based
Settings: in combination with SET-M33; cases of synergistic effect
Procedure: Activity of SET-M33 and antibiotics was evaluated on six well characterized clinical strains. The strains were selected according to their resistance phenotypes and genotypes.
Antimicrobial activity in combination was evaluated, in duplicate for each of the six strains, with the checkerboard method using cation-adjusted Mueller-Hinton broth (MHB) in 96-well microtiter plates (Sarstedt, Inc., Newton, N.C.). Assays were performed using a final bacterial inoculum of 5×10^4 CFU/well in a final volume of 100 μl. Results were recorded after 20 h of incubation at 35° C. The total fractional inhibitory concentration (ΣFIC) for each antibiotic combination was calculated according to EUCAST definitive document E.Def 1.2 [16] as follows: ΣFIC equals FIC of agent A plus FIC of agent B, where the FIC of agent A or B is the MIC of agent A or B in the presence of the other divided by the MIC of agent A or B alone. Results were interpreted according to the following definition: a ΣFIC of ≤0.5 indicated synergism, a ΣFIC of >0.5 to 1 indicated additivity, a ΣFIC of >1 to <2 indicated indifference, and a ΣFIC of ≥2 antagonism.

Compound: CO[C@H]1/C=C/O[C@@]2(C)Oc3c(C)c(O)c4c(O)c(c(/C=N/N5CCN(C)CC5)c(O)c4c3C2=O)NC(=O)/C(C)=C\C=C\[C@H](C)[C@H](O)[C@@H](C)[C@@H](O)[C@@H](C)[C@H](OC(C)=O)[C@@H]1C [rifampin]
- decrease of MIC of conventional antibiotic in combination: ≤ 128 fold
